Reference: paper PMC10325903

The chains behind the UniProt entries cited, without tags or fusion partners. Residues count along the entry.
UniProt P31316, 167-305: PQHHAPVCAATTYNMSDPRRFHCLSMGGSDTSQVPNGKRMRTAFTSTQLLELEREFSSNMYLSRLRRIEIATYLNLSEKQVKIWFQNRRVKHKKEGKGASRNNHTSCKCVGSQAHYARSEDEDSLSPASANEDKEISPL
UniProt P40764, 137-229: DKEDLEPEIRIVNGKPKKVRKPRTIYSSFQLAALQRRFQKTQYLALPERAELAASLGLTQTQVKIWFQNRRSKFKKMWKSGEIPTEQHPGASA

How the values were obtained:
Gsx2 HD fragment = Gsx2 HD fragment (UniProt P31316); assay: EMSA; details: 100 and 400 nM protein, 34 nM IRDye700 probe, room temperature 20 min, 4% polyacrylamide gel 150 V 2 h, recombinant protein, label: 5' IRDye700 on bottom strand
Dlx2 HD fragment = Dlx2 HD fragment (UniProt P40764); assay: EMSA; details: 20 and 80 nM protein, 34 nM IRDye700 probe, room temperature 20 min, 4% polyacrylamide gel 150 V 2 h, recombinant protein, label: 5' IRDye700 on bottom strand

Sequence: CCCCGTAATCGCGGCGTAATCCCGCTAGTGCGGGCGTGGCT (double strand) [Gsx1/2_RULE_2]
- binding result (Gsx2 HD fragment): binds more weakly

Sequence: CCCGCAATTCGCGGTTATCCGGGTAGTGCGGGCGTGGCT (double strand) [Dlx2_RULE_2]
- binding result (Dlx2 HD fragment): binds more weakly

Sequence: CGGCCTAATGCCCCGGTAATGCCCGTAGTGCGGGCGTGGCT (double strand) [Gsx1/2_RULE_1]
- binding result (Gsx2 HD fragment): binds more weakly

Sequence: GGGGCAATTGCGGCTTATGGGGCTAGTGCGGGCGTGGCT (double strand) [Dlx2_RULE_1]
- binding result (Dlx2 HD fragment): binds more weakly

The comparison behind a weaker result is the experiment's own reference, which may not be listed here.
